Test results taken from the supplement of paper PMC4604168 (melanoma cell lines).
This is one part of the list. Repeats are few or missing, and single values can be far off.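 Cells were imaged in 1,536-well plates, and nuclei stained with an antibody against cleaved PARP were counted against all DNA-stained nuclei to give the apoptosis fraction. Screening doses were chosen to leave most cells alive, and resting and induced cleaved-PARP levels differ strongly between cell lines.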

Tests used:
Experiment in all cases: cleaved PARP positive nuclei fraction relative to DMSO control; melanoma cells; higher = more apoptosis
Conditions in all cases: library dose: low library concentration; 72 h
MZ2-MEL = test system: MZ2-MEL
MeWo = test system: MeWo
RPMI7951 = test system: RPMI7951
RVH-421 = test system: RVH-421
SkMel28 = test system: SkMel28
SkMel2 = test system: SkMel2
SkMel30 = test system: SkMel30
SkMel5 = test system: SkMel5
UACC257 = test system: UACC257
UACC62 = test system: UACC62
WM115 = test system: WM115
WM1716 = test system: WM1716
WM1745 = test system: WM1745
WM3526 = test system: WM3526
WM3619 = test system: WM3619
WM451Lu = test system: WM451Lu

| Structure (SMILES) | cleaved PARP positive nuclei fraction (MZ2-MEL) [%] | cleaved PARP positive nuclei fraction (MeWo) [%] | cleaved PARP positive nuclei fraction (RPMI7951) [%] | cleaved PARP positive nuclei fraction (RVH-421) [%] | cleaved PARP positive nuclei fraction (SkMel28) [%] | cleaved PARP positive nuclei fraction (SkMel2) [%] | cleaved PARP positive nuclei fraction (SkMel30) [%] | cleaved PARP positive nuclei fraction (SkMel5) [%] | cleaved PARP positive nuclei fraction (UACC257) [%] | cleaved PARP positive nuclei fraction (UACC62) [%] | cleaved PARP positive nuclei fraction (WM115) [%] | cleaved PARP positive nuclei fraction (WM1716) [%] | cleaved PARP positive nuclei fraction (WM1745) [%] | cleaved PARP positive nuclei fraction (WM3526) [%] | cleaved PARP positive nuclei fraction (WM3619) [%] | cleaved PARP positive nuclei fraction (WM451Lu) [%] |
| --- | --- | --- | --- | --- | --- | --- | --- | --- | --- | --- | --- | --- | --- | --- | --- | --- |
| CC(C)(C)c1cnc(CSc2cnc(NC(=O)C3CCNCC3)s2)o1 + COc1cc2c(Oc3ccc4[nH]c(C)cc4c3F)ncnc2cc1OCCCN1CCCC1 [cediranib] (first compound 0.01 µM, partner dose 0.4 µM) | 116 | 67.4 | 102 | 120 | 64.4 | 82.4 | 61.1 | 147 | 222 | 161 | 155 | 131 | 101 | 56.9 | 94.9 | 84.9 |
| Cc1nc(Nc2ncc(C(=O)Nc3c(C)cccc3Cl)s2)cc(N2CCN(CCO)CC2)n1 [dasatanib] + CN(NC(=O)CC(=O)NN(C)C(=S)c1ccccc1)C(=S)c1ccccc1 [STA4783] (first compound 0.004 µM, partner dose 0.006 µM) | 56.5 | 111 | 84.7 | 106 | 77.5 | 49.9 | 91.9 | 71.8 | 139 | 214 | 250 | 192 | 246 | 132 | 159 | 242 |
| COCC[n+]1c2c(n(Cc3cnccn3)c1C)C(=O)c1ccccc1C2=O + Cc1cc(N2CCOCC2)cc2[nH]c(-c3c(NC[C@@H](O)c4cccc(Cl)c4)cc[nH]c3=O)nc12 [BMS536924] (first compound 0.0004 µM, partner dose 0.2 µM) | 233 | 122 | 147 | 98 | 270 | 227 | 96.7 | 232 | 147 | 109 | 269 | 32.3 | 120 | 71.3 | 96.7 | 184 |
| COCC[n+]1c2c(n(Cc3cnccn3)c1C)C(=O)c1ccccc1C2=O + NCC(=O)Nc1ccc(-n2nc(C(F)(F)F)cc2-c2ccc3c(ccc4ccccc43)c2)cc1 [OSU03012] (first compound 0.0004 µM, partner dose 1 µM) | 172 | 169 | 129 | 68.1 | 78.5 | 214 | 148 | 104 | 220 | 32.5 | 107 | 145 | 92.6 | 79 | 118 | 95.7 |
| Cn1c(Nc2ccc(C(F)(F)F)cc2)nc2cc(Oc3ccnc(-c4ncc(C(F)(F)F)[nH]4)c3)ccc21 + Cc1cc(N2CCOCC2)cc2[nH]c(-c3c(NC[C@@H](O)c4cccc(Cl)c4)cc[nH]c3=O)nc12 [BMS536924] (first compound 0.08 µM, partner dose 0.2 µM) | 294 | 177 | 373 | 167 | 56.2 | 212 | 140 | 161 | 833 | 123 | 333 | 169 | 156 | 407 | 140 | 106 |
| Cn1c(Nc2ccc(C(F)(F)F)cc2)nc2cc(Oc3ccnc(-c4ncc(C(F)(F)F)[nH]4)c3)ccc21 + CC1(C)NC(=O)N(c2ccc([N+](=O)[O-])c(C(F)(F)F)c2)C1=O [nilutamide] (first compound 0.08 µM, partner dose 1 µM) | 430 | 82.4 | 79.8 | 103 | 186 | 132 | 121 | 141 | 320 | 229 | 321 | 200 | 168 | 112 | 137 | 237 |
| OCc1c[nH]c2ccccc12 [Indole-3-carbinol] + CC(C)(C)c1cnc(CSc2cnc(NC(=O)C3CCNCC3)s2)o1 [SNS-032] (first compound 0.8 µM, partner dose 0.01 µM) | 145 | 49.7 | 111 | 134 | 155 | 82.3 | 60.3 | 92.4 | 99.5 | 104 | 45.2 | 42.2 | 85.3 | 51.6 | 82.4 | 199 |
| C=CCn1c(=O)c2cnc(Nc3ccc(N4CCN(C)CC4)cc3)nc2n1-c1cccc(C(C)(C)O)n1 + CN(C)S(=O)(=O)c1ccc2c(c1)/C(=C/c1cc3c([nH]1)CCCC3)C(=O)N2 [SU6656] (first compound 0.02 µM, partner dose 0.4 µM) | 237 | 98.8 | 47.2 | 171 | 62 | 48.3 | 255 | 154 | 538 | 96.9 | 296 | 21.3 | 105 | 191 | 121 | 372 |
| C=CCn1c(=O)c2cnc(Nc3ccc(N4CCN(C)CC4)cc3)nc2n1-c1cccc(C(C)(C)O)n1 + NCC(=O)Nc1ccc(-n2nc(C(F)(F)F)cc2-c2ccc3c(ccc4ccccc43)c2)cc1 [OSU03012] (first compound 0.02 µM, partner dose 1 µM) | 134 | 1280 | 109 | 47.7 | 168 | 180 | 481 | 144 | 56.9 | 110 | 103 | 197 | 108 | 257 | 148 | 137 |
| CC(=O)c1c(C)c2cnc(Nc3ccc(N4CCNCC4)cn3)nc2n(C2CCCC2)c1=O [palbociclib] + CC(C)CCN1c2nc(Nc3cc(F)c(O)c(F)c3)ncc2N(C)C(=O)C1C [BID1870] (first compound 0.04 µM, partner dose 0.2 µM) | 123 | 109 | 83.8 | 71.5 | 199 | 92.5 | 42.9 | 142 | 160 | 223 | 131 | 209 | 108 | 148 | 19.6 | 404 |
